This is one part of the list.
How the values were obtained:
Assay in all cases: NMR binding call after quantification (hit when 2 of 3 NMR criteria are met) (binary (1 = binding, 0 = not binding)); higher = binding
Conditions in all cases: RNA concentration 10 µM; fragment concentration 200 µM; 293 K
SARS-CoV-2 5_SL7 RNA = test system: SARS-CoV-2 5_SL7 RNA
SARS-CoV-2 5_SL8 RNA = test system: SARS-CoV-2 5_SL8 RNA
[1] = test system: SARS-CoV-2 attenuator hairpin (att HP) RNA
[2] = test system: SARS-CoV-2 frameshift pseudoknot (PK) RNA

Measured: NMR binding call

CCCn1nnnc1NC(=O)c1ccco1
0: all assays above

OCc1cn(-c2ccc(Cl)cc2)nn1
0: all assays above

OC1CCN(Cc2ccc(Cl)cc2)C1 (stereo not drawn)
0: all assays above

C1CCC(NCC2CCCO2)C1 (stereo not drawn)
0: all assays above

O=C(c1ccco1)N1CCN(C(=O)C2CC2)CC1
0: all assays above

CCC(CC)C(=O)Nc1nccs1
0: all assays above

CC1CN(C(=O)c2cnccn2)CCO1 (stereo not drawn)
0: all assays above

COCCNC1CCN(C(C)=O)CC1
0: all assays above

CNCC(=O)Nc1cc(C)ccn1
0: all assays above

Reprinted from the results shown, two compounds:
O=C(c1ccco1)N1CCN(C(=O)C2CC2)CC1
0: all assays above

CCC(CC)C(=O)Nc1nccs1
0: all assays above

(listing goes on)

Cc1ccc(C)c(OC(=O)c2ccncc2)c1
0: all assays above

CNCC1COc2ccccc2O1 (stereo not drawn)
0: all assays above

Fc1cccnc1NCC1CCOCC1
0: all assays above

N#CCC(=O)NC1CCCCC1
0: all assays above

Cc1cccc(N2CCNC(C)C2)n1 (stereo not drawn)
0: all assays above

NC(=O)CN1CCN(C(=O)c2ccco2)CC1
0: all assays above

Cc1csc(CNC(=O)c2cc[nH]n2)n1
0: all assays above

Cc1nnc(CN2CCC=C(F)C2)s1
0: all assays above

CC(=O)NCc1ccc(S(N)(=O)=O)cc1
0: all assays above

CC(=O)NC(C(=O)O)C1CCOCC1 (stereo not drawn)
0: all assays above

CC(=O)NCc1cncs1
0: all assays above

CC(C)CNC(=O)c1ccc2ccccc2c1
0: all assays above

O=C(Nc1ccc(F)cc1)Nc1ccc(F)cc1
0: all assays above

O=C(CCc1ccccc1)Nc1ccc(O)cc1
0: all assays above

Cc1ccc(CC(=O)NCC2CCCO2)cc1 (stereo not drawn)
0: all assays above

COc1ccc(C(=O)NCC(N)=O)cc1
0: all assays above

Cc1nnc(NC(=O)N2CCOCC2)s1
0: all assays above

O=C(O)c1ccccc1OC(F)(F)F
0: all assays above

CC(C)c1ccc(C(=O)Nc2nncs2)cc1
0: all assays above

CC(=O)Nc1cccc(NC(N)=O)c1
0: all assays above

Cc1c(C(=O)NCC2CCC2)cnn1C
0: all assays above

O=C(NCCC1=CCCCC1)c1cnccn1
0: all assays above

CCOC(=O)c1cc(-c2ccc(F)cc2)no1
0: all assays above
